Consider one substance from PMC7224567.

Amino acid sequences for entries named in this document (tags omitted).
UniProt P22366: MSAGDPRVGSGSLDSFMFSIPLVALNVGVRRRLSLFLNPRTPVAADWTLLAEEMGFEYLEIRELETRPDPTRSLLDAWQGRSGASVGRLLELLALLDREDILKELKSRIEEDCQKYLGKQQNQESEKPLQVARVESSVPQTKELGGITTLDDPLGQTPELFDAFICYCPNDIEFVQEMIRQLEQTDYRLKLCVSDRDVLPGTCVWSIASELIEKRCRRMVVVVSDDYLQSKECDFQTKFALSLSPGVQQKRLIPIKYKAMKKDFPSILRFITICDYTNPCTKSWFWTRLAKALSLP
UniProt Q6ZWS8: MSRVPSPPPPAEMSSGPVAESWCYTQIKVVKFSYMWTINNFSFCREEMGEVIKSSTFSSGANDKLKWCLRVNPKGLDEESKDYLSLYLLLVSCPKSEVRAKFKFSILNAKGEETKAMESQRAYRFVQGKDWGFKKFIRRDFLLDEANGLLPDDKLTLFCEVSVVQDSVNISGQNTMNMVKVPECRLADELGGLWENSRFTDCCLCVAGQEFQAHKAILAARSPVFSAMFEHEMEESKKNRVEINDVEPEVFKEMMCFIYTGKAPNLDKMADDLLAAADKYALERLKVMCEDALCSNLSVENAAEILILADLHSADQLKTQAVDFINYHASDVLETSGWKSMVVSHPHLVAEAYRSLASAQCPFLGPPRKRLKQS

Results are given in words; binding and its absence hold for the method and conditions named. Binding seen in cells or lysates may run through a third protein. Some results given as binding are weak or reduced against the parent protein; the word gives no strength.

In the test the target is mouse MyD88 (mouse) (UniProt P22366). The test is described as follows: co-IP; CHO cells transfected with mouse MyD88 and SPOP; IP with anti-FLAG antibody.

Consider mouse SPOP (from UniProt Q6ZWS8 1-374), for which the binding entry is “binds”.
